In PubChem BioAssay AID2685 (National Center for Advancing Translational Sciences (NCATS), 2010) one finds AC50 and cell number change data, which are given here for 40 compounds.

Each structure is given as a SMILES string. This is one part of the list. These are further read-outs of the screen, such as a control signal, another cell line or another target. No call is given for them. The list favours compounds with an active or inconclusive main result. The note in brackets gives the kind of curve behind each potency; many fits are weak.

The nature of this experiment: qHTS Assay for Lipid Storage Modulators in Drosophila S3 Cells.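 On cell number change: cells counted by Cell Tracker Red CMTPX staining in the red channel.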 The following applies: BODIPY lipid droplet fluorescence, 18-24 h; for cell number change: measured here: cell count max response, cells fed with added oleic acid. Put shortly:
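Drosophila S3 cells got compounds at several concentrations plus oleic acid (400 uM solution). Laser-scanning cytometry with 488 nm excitation read lipid droplets at 500-530 nm and cells at 575-640 nm. Percent activity was relative to 20 uM Triacsin C.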

[1] abbreviates: measured here: cell number channel AC50, cells fed with added oleic acid.
Setting [2] is: measured here: lipid fluorescence (Fed channel) AC50, cells fed with added oleic acid.

The term AC50 denotes the midpoint of the concentration-response curve, whichever way the signal moves. For the compound `O=C1CCCN1CCCNCC(=O)N1c2ccccc2Sc2ccccc21`, the AC50 under setting [1] is 0.13 µM [rising, full curve, poor fit].

For the compound `O=C(CSc1n[nH]c(-c2ccco2)n1)N1c2ccccc2Sc2ccccc21`, the AC50 under setting [2] is 18.4 µM [falling, partial curve].

Turning to `COc1ccccc1CNC(=O)COC(=O)c1ccc(C)c(S(=O)(=O)N2CCOCC2)c1`, the cell number change is 0.453%. For the same compound, under setting [1], the AC50 was 0.82 µM [falling, full curve, poor fit]. Further, the AC50 under setting [2] is 0.82 µM [falling, full curve, poor fit].

`OC(CNCc1ccccc1Cl)C(F)(F)F` (stereo not drawn): the cell number change is -18.8%. The AC50 under setting [2] was 15.8 µM [falling, single point].

With `COc1ccc2[nH]c(C)c(CCNC(=S)Nc3cccc(C)c3C)c2c1`, the cell number change came to 4.72%. Moreover, the half-maximal activity concentration (AC50) under setting [2] is 1.46 µM [rising, full curve, poor fit].

Consider `NC1=C(Br)C(=O)c2ccccc2C1=O`, for which the cell number change is -28.7%. The AC50 under setting [2] is 13 µM [falling, partial curve, poor fit].

As for `COc1cc(C)c(Cl)cc1S(=O)(=O)n1cnc2ccccc21`, the AC50 under setting [1] is 0.184 µM [rising, full curve, poor fit].

With `Cc1ccc(N2CCN(C(=O)Nc3cccc([N+](=O)[O-])c3)CC2C)cc1` (stereo not drawn), the cell number change is -30.4%. In addition, the AC50 under setting [1] is 12.6 µM [falling, single point].

As for `Cc1nc2ccccc2n1CCc1nc2c3ccccc3nc(SCC(=O)NCc3ccco3)n2n1`, the cell number change is -69.7%. Under setting [1], the AC50 is 18.4 µM [falling, partial curve]. For the same compound, under setting [2], the AC50 is 18.4 µM [falling, partial curve].

As for `CCc1cc2c(C)cc(=O)oc2cc1OC(=O)C1CCCN1C(=O)OC(C)(C)C` (stereo not drawn), the cell number change was -2.12%. Further, the AC50 under setting [1] is 0.651 µM [falling, single point].

For the compound `CCCCC(Nc1ncnc2ccccc12)C(=O)O` (stereo not drawn), the cell number change was determined as 9.51%.

Take `COc1ccc(C(Nc2cccc([N+](=O)[O-])c2)P(=O)(OC(C)C)OC(C)C)cc1` (stereo not drawn): the cell number change is 6.08%. Besides, the AC50 under setting [2] was 29.1 µM [rising, single point].

As for `O=C(CN(Cc1ccccc1Cl)C(=O)c1csnn1)NCc1ccc(F)cc1`, the cell number change is -12.4%.

For the compound `CC(=O)c1cccc(NC(=O)C2CCCC2)c1`, the cell number change was determined as 0.881%. Further, the concentration at half-maximal activity (AC50) under setting [2] was 0.0058 µM [falling, full curve, poor fit].

For the compound `CCOc1ccc2ccccc2c1/C=N/NC(=O)c1cc(C)[nH]n1`, under setting [2], the AC50 is 3.55 µM [rising, single point].

As to `CC(C)(C)Cc1nnc(NC(=O)c2ccc([N+](=O)[O-])cc2)s1`, the cell number change turned out to be 20.6%. Also, the AC50 under setting [2] was 0.164 µM [falling, full curve].

Take `CCCCC1(CO)C(=O)N(c2ccccc2)N(c2ccccc2)C1=O`: the cell number change turned out to be 4.48%. Besides, under setting [2], the AC50 was 6.51 µM [rising, single point].

On to `COCCn1c(SCC(=O)NCc2ccc3c(c2)OCO3)nnc1C(C)C`, for which the cell number change is 5.83%. Further, the AC50 under setting [2] was 0.731 µM [rising, partial curve].

For `COc1cc(NC(=O)c2ccc(COCC(F)(F)F)o2)cc(OC)c1OC`, under setting [1], the AC50 is 4.11 µM [rising, single point].

As to `Cn1cnnc1SCc1ccc(F)c2ccccc12`, the cell number change came to 33.4%. In addition, under setting [1], the concentration at half-maximal activity (AC50) is 2.59 µM [rising, partial curve].

On to `Clc1cccc(-c2ccc(CNCc3ccccn3)o2)c1`, for which the cell number change is -6.08%. In addition, under setting [2], the AC50 is 29.1 µM [falling, single point].

For the compound `CC(=O)N=c1sc2cc(C)ccc2n1C`, the cell number change was determined as 24.2%.

Consider `CN(C)S(=O)(=O)c1cccc(NS(=O)(=O)c2ccc(Cl)s2)c1`, for which the cell number change was -62.7%. Further, under setting [1], the AC50 was 18.4 µM [falling, single point]. Besides, the AC50 under setting [2] was 11.6 µM [falling, single point].

Take `CC1CC(C)CN(Cc2nc(N)nc(Nc3ccccc3)n2)C1` (stereo not drawn): the cell number change is 44.4%. For the same compound, the AC50 under setting [1] is 6.51 µM [rising, partial curve]. Further, under setting [2], the AC50 is 29.1 µM [rising, single point].

`COc1ccc(NC(=O)C2CCC(=O)N2S(=O)(=O)c2ccc(C)cc2)cc1Cl` (stereo not drawn): the cell number change was determined as 8.97%. Further, the AC50 under setting [2] is 0.651 µM [rising, partial curve, poor fit].

As for `O=C(N/N=C/c1coc2ccc(Cl)cc2c1=O)c1cc(O)cc(O)c1`, the AC50 under setting [2] is 0.00461 µM [falling, full curve, poor fit].

Consider `Cc1nc2ccc(S(=O)(=O)NC(C(=O)NC3CCCC3)C(C)C)cc2s1` (stereo not drawn), for which the cell number change was -10.2%. Under setting [2], the AC50 is 0.058 µM [falling, full curve, poor fit].

For the compound `Cc1ccc2c(c1)N(CC(=O)NC1CCCC(C)C1C)C(=O)c1cccnc1O2` (stereo not drawn), the cell number change was -7.49%. For the same compound, the AC50 under setting [2] was 20.6 µM [falling, single point].

In the case of `COC(=O)c1ccccc1NC(=O)c1cccc(NC(=O)CSCc2ccccc2)c1C`, the cell number change was found to be 50.9%. Besides, under setting [1], the AC50 was 0.731 µM [rising, full curve]. Also, the AC50 under setting [2] was 6.51 µM [rising, single point].

Regarding `CCn1c(O)c(N=NC(=O)c2cccnc2)c2cc(Br)ccc21`, the cell number change turned out to be 20%. Under setting [2], the AC50 is 0.082 µM [rising, full curve, poor fit].

Turning to `COc1ccc(CNC(=O)C2CC(c3ccccc3C(F)(F)F)=NO2)cc1` (stereo not drawn), the cell number change is 28.5%. Under setting [2], the AC50 is 29.1 µM [rising, partial curve, poor fit].

With `O=C(O)CC[C@@H](C(=O)O)N1C(=O)c2ccccc2C1=O`, the cell number change is -16.2%. Also, the AC50 under setting [2] is 16.4 µM [rising, single point].

As to `Cn1nc([N+](=O)[O-])nc1Oc1ccc(C(C)(C)C)cc1`, the cell number change was -11.1%.

As to `CCNC(=O)COc1cccc(C(=O)NCc2ccccc2)c1`, the cell number change was found to be 6.33%. Under setting [2], the half-maximal activity concentration (AC50) was 8.2 µM [falling, single point].

For the compound `CCN(CC)CCCN(C(=O)c1cccc(C)c1)c1nc(-c2ccc(OC)cc2)cs1`, the cell number change came out at 1.46%. Further, the AC50 under setting [2] is 29.1 µM [falling, single point].

As for `CN(C)c1ccc(/C=N/N(CCC(=O)NC(C)(C)C)C2=NS(=O)(=O)c3ccccc32)cc1`, the cell number change was determined as 17.6%. Under setting [2], the AC50 is 2.59 µM [falling, full curve, poor fit].

Take `CCOc1ccc(N2CC(C(=O)N3CCc4ccccc43)CC2=O)cc1` (stereo not drawn): the cell number change was found to be 6.31%.

`O=C(OC(C(=O)NCC1CCCO1)c1ccccn1)c1cccs1` (stereo not drawn): the cell number change was 8.46%. For the same compound, the AC50 under setting [2] is 29.1 µM [rising, single point].

As for `Oc1ccc(Nc2nc(-c3ccc4ccccc4c3)cs2)cc1`, the cell number change was -55.9%.

Turning to `CC(OC(=O)c1ccc2c(c1)OCCO2)C(=O)c1ccccc1` (stereo not drawn), the cell number change stood at 125%. The concentration at half-maximal activity (AC50) under setting [1] was 20.6 µM [rising, single point].
